Results: publication doi:10.1101/2025.07.24.666583
No constants are given. Whether binding was seen depends on the method and setting. For part of these data: In cells and extracts the contact can be indirect. Some results given as binding are weak or reduced against the parent protein; the word gives no strength. For part of these data: Tags and fused reporters may be left off the sequences shown.

The chains behind the UniProt entries cited, without tags or fusion partners. Where a name states a change or a piece, a line headed by the entry shows the natural chain unless it says otherwise. A line that says so, or that is headed by a name, gives the form on record, which may keep a tag or linker. Residues count along the entry.
dual-cassette helicase region of ASCC3 (residues 401-2202; ASCC3^HR WT) (Q8N3C0, residues 401-2202): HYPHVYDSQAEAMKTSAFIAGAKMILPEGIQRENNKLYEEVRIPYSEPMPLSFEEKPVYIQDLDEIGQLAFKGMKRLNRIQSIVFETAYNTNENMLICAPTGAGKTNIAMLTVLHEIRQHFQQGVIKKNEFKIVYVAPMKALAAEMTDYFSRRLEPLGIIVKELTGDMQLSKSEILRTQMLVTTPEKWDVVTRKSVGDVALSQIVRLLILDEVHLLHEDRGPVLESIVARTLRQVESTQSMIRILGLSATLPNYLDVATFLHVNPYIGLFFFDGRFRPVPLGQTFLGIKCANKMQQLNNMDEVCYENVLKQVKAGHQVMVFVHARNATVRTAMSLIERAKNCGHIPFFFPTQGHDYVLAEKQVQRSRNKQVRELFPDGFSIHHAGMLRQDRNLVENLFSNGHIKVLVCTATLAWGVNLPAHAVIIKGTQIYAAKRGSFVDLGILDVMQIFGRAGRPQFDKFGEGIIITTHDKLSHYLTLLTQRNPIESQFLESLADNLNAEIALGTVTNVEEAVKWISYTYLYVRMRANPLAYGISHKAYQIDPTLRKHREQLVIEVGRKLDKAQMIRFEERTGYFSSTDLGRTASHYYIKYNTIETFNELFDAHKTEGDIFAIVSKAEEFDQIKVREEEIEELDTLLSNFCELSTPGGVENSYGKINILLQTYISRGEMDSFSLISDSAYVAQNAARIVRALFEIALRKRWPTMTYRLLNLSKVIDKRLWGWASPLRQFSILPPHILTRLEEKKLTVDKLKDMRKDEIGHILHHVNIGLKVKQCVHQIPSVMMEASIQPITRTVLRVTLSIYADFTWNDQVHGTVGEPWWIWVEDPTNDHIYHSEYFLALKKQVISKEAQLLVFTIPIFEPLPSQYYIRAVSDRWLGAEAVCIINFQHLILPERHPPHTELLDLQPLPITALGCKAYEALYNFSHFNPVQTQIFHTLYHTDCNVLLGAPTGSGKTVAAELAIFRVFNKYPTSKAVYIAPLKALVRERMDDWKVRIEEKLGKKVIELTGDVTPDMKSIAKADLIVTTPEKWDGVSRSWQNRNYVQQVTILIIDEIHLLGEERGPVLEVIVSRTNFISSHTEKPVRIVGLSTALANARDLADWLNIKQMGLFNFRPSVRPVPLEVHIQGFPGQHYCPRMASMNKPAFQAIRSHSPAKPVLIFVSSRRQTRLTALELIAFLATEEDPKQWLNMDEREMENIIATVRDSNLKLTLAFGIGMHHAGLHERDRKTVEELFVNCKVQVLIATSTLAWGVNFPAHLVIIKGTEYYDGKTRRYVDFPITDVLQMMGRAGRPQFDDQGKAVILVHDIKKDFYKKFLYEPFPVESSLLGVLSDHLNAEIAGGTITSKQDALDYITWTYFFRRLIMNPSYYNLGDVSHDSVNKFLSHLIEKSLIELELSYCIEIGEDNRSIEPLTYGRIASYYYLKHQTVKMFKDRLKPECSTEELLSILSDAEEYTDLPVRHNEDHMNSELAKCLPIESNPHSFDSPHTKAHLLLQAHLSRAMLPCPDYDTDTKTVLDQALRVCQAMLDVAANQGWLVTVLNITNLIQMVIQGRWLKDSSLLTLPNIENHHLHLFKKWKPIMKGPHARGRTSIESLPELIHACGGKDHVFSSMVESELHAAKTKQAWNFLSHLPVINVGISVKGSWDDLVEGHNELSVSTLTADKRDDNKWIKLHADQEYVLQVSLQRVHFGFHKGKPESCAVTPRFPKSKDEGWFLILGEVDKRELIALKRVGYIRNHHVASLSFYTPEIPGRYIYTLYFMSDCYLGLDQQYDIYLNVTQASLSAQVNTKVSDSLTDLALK
ASCC3^HR carrying helicase-dead D611A-D1453A mutations (Q8N3C0, form named): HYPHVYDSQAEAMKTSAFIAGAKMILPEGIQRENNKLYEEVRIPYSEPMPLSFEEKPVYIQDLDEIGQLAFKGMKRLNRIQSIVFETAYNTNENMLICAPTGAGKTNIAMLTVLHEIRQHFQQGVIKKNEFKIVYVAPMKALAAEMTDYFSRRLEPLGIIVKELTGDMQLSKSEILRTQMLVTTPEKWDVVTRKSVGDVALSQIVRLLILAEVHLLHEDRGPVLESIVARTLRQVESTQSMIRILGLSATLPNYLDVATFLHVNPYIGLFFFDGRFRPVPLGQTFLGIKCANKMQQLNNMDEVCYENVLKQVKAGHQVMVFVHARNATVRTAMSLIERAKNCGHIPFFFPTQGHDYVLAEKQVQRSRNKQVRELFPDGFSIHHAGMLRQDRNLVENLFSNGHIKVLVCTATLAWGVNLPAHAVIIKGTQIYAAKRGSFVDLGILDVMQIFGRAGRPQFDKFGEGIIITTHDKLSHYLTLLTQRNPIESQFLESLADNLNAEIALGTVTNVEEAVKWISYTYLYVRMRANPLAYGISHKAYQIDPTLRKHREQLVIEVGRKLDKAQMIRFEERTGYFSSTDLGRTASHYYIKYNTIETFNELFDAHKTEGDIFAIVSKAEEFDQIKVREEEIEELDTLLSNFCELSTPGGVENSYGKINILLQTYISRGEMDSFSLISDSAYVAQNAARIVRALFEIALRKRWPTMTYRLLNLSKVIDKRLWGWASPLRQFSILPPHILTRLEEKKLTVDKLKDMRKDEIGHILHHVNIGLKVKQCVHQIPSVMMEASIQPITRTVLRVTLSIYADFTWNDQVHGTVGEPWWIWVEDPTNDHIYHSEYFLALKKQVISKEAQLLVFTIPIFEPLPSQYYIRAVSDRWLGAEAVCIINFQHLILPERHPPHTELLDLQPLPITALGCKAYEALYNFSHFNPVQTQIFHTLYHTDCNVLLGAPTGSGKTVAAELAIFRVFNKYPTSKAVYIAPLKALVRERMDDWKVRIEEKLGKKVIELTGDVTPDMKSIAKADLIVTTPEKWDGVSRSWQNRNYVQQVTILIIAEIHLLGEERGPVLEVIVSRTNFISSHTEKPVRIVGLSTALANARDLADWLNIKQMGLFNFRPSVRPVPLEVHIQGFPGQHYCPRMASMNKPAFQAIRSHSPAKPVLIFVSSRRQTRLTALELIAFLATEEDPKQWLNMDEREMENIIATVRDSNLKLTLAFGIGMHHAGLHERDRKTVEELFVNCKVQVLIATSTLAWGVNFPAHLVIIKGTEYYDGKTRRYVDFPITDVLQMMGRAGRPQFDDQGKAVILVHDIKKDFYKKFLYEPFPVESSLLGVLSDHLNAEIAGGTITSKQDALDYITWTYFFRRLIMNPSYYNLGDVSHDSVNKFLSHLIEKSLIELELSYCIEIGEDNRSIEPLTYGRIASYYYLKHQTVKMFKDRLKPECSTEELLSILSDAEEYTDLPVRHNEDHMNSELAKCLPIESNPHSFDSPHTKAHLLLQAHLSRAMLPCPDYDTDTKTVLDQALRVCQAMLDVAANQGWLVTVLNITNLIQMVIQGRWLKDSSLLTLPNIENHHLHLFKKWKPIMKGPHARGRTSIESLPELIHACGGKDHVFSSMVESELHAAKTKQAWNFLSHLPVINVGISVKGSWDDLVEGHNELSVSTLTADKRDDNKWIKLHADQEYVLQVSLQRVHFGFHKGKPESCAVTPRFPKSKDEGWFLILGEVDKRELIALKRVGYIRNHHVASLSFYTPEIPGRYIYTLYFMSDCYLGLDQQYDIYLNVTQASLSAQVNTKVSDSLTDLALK
UniProt P27694: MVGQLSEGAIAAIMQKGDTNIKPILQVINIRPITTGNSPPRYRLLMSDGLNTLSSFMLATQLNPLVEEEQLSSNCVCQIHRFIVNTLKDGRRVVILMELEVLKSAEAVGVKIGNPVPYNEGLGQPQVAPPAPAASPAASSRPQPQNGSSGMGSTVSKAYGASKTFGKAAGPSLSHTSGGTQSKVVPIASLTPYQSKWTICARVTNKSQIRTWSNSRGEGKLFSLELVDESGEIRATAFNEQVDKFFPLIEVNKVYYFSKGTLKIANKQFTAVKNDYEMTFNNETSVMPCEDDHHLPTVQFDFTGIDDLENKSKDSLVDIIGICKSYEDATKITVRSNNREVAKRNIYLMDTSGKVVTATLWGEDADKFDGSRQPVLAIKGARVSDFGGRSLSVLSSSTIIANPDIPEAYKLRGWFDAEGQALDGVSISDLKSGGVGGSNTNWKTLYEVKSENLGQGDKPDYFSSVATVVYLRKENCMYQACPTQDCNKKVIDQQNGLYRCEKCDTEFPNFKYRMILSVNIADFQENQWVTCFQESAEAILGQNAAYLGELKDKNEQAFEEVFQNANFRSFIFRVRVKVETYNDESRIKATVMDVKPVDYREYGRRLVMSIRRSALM

How the values were obtained:
[1] = target: ASCC3^HR carrying helicase-dead D611A-D1453A mutations (human) (UniProt Q8N3C0); experiment: co-purification (Ni-NTA, Strep-Tactin, SEC); TRIP4 co-produced with ASCC3^HR in High Five cells; lysate in 500 mM NaCl, 20 mM HEPES-NaOH pH 7.5; Ni-NTA, then Strep-Tactin, then SEC on Superdex 200 in 250 mM NaCl
[2] = target: dual-cassette helicase region of ASCC3 (residues 401-2202; ASCC3^HR WT) (human) (UniProt Q8N3C0); experiment: as above
HA-RPA70 = HA-RPA70 (UniProt P27694); experiment: co-IP; anti-HA IP from HEK293T expressing vector or HA-RPA70, endogenous ASCC2/ASCC3 blotted; with or without 4 mM HU for 4 h; with or without DNase I (50 units) in the lysate

B1: full-length TRIP4 (TwinStrep-tagged) (protein, UniProt Q15650 1-581)
chain: MAVAGAVSGEPLVHWCTQQLRKTFGLDVSEEIIQYVLSIESAEEIREYVTDLLQGNEGKKGQFIEELITKWQKNDQELISDPLQQCFKKDEILDGQKSGDHLKRGRKKGRNRQEVPAFTEPDTTAEVKTPFDLAKAQENSNSVKKKTKFVNLYTREGQDRLAVLLPGRHPCDCLGQKHKLINNCLICGRIVCEQEGSGPCLFCGTLVCTHEEQDILQRDSNKSQKLLKKLMSGVENSGKVDISTKDLLPHQELRIKSGLEKAIKHKDKLLEFDRTSIRRTQVIDDESDYFASDSNQWLSKLERETLQKREEELRELRHASRLSKKVTIDFAGRKILEEENSLAEYHSRLDETIQAIANGTLNQPLTKLDRSSEEPLGVLVNPNMYQSPPQWVDHTGAASQKKAFRSSGFGLEFNSFQHQLRIQDQEFQEGFDGGWCLSVHQPWASLLVRGIKRVEGRSWYTPHRGRLWIAATAKKPSPQEVSELQATYRLLRGKDVEFPNDYPSGCLLGCVDLIDCLSQKQFKEQFPDISQESDSPFVFICKNPQEMVVKFPIKGNPKIWKLDSKIHQGAKKGLMKQNKAV
B1 was tested, and the binding [1] was “binds” and the binding [2] was “binds”.

B2: endogenous ASCC2 (HEK293T) (protein, UniProt Q9H1I8 1-757)
chain: MPALPLDQLQITHKDPKTGKLRTSPALHPEQKADRYFVLYKPPPKDNIPALVEEYLERATFVANDLDWLLALPHDKFWCQVIFDETLQKCLDSYLRYVPRKFDEGVASAPEVVDMQKRLHRSVFLTFLRMSTHKESKDHFISPSAFGEILYNNFLFDIPKILDLCVLFGKGNSPLLQKMIGNIFTQQPSYYSDLDETLPTILQVFSNILQHCGLQGDGANTTPQKLEERGRLTPSDMPLLELKDIVLYLCDTCTTLWAFLDIFPLACQTFQKHDFCYRLASFYEAAIPEMESAIKKRRLEDSKLLGDLWQRLSHSRKKLMEIFHIILNQICLLPILESSCDNIQGFIEEFLQIFSSLLQEKRFLRDYDALFPVAEDISLLQQASSVLDETRTAYILQAVESAWEGVDRRKATDAKDPSVIEEPNGEPNGVTVTAEAVSQASSHPENSEEEECMGAAAAVGPAMCGVELDSLISQVKDLLPDLGEGFILACLEYYHYDPEQVINNILEERLAPTLSQLDRNLDREMKPDPTPLLTSRHNVFQNDEFDVFSRDSVDLSRVHKGKSTRKEENTRSLLNDKRAVAAQRQRYEQYSVVVEEVPLQPGESLPYHSVYYEDEYDDTYDGNQVGANDADSDDELISRRPFTIPQVLRTKVPREGQEEDDDDEEDDADEEAPKPDHFVQDPAVLREKAEARRMAFLAKKGYRHDSSTAVAGSPRGHGQSRETTQERRKKEANKATRANHNRRTMADRKRSKGMIPS
B2 was tested, and the binding (HA-RPA70) was “binds”.
